± gives the standard deviation of the averaged measurements. Differences between knockout arms are mostly noise.
Test system: ZR-75-1
Assay: relative cell number vs DMSO control (72 h) (% of DMSO); higher = less growth inhibition (more cells)
Procedure: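 QMAP-Seq: a pool of 5 breast cancer cell lines (ZR-75-1, SKBR3, HCC-38, MDA-MB-231, BT-20), each carrying 12 doxycycline-inducible Cas9 sgRNA perturbations (11 knockouts plus non-targeting sgNT), was treated with compounds for 72 h at four 10-fold doses (10 nM-10 uM or 1 nM-1 uM range). Barcodes were amplified and sequenced, and cell number was interpolated from 293T spike-in standard curves. The result is expressed as % of the median of DMSO wells. Two biological replicates.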

[1] = sgRNA knockout: sgATF3, 1000 nM
[2] = sgRNA knockout: sgATF3, 10000 nM
[3] = sgRNA knockout: sgATF4, 1000 nM
[4] = sgRNA knockout: sgATF4, 10000 nM
[5] = sgRNA knockout: sgATF6, 1000 nM
[6] = sgRNA knockout: sgATF6, 10000 nM
[7] = sgRNA knockout: sgATG7, 1000 nM
[8] = sgRNA knockout: sgATG7, 10000 nM
[9] = sgRNA knockout: sgERN1, 1000 nM
[10] = sgRNA knockout: sgERN1, 10000 nM
[11] = sgRNA knockout: sgHSF2, 1000 nM
[12] = sgRNA knockout: sgHSF2, 10000 nM
[13] = sgRNA knockout: sgNFE2L2, 10 nM
[14] = sgRNA knockout: sgNFE2L2, 100 nM
[15] = sgRNA knockout: sgNFE2L2, 1000 nM
[16] = sgRNA knockout: sgNFE2L2, 10000 nM
[17] = sgRNA knockout: sgSLC35F2, 10 nM
[18] = sgRNA knockout: sgSLC35F2, 100 nM
[19] = sgRNA knockout: sgSLC35F2, 1000 nM
[20] = sgRNA knockout: sgSLC35F2, 10000 nM
[21] = sgRNA knockout: sgXBP1, 1000 nM
[22] = sgRNA knockout: sgXBP1, 10000 nM

CC(C)(C)c1nc(-c2cccc(NS(=O)(=O)c3c(F)cccc3F)c2F)c(-c2ccnc(N)n2)s1 [Dabrafenib]
relative cell number (sgRNA knockout: sgATF3, 10 nM): 159 ± 16 | relative cell number (sgRNA knockout: sgATF3, 100 nM): 103 ± 22 | relative cell number [1]: 97.3 ± 15 | relative cell number [2]: 104 ± 11 | relative cell number (sgRNA knockout: sgATF4, 10 nM): 141 ± 26 | relative cell number (sgRNA knockout: sgATF4, 100 nM): 97.9 ± 14 | relative cell number [3]: 84.1 ± 7.6 | relative cell number [4]: 83 ± 24 | relative cell number (sgRNA knockout: sgATF6, 10 nM): 109 ± 4 | relative cell number (sgRNA knockout: sgATF6, 100 nM): 146 ± 27 | relative cell number [5]: 92.4 ± 51 | relative cell number [6]: 77.4 ± 6.2 | relative cell number (sgRNA knockout: sgATG7, 10 nM): 140 ± 20 | relative cell number (sgRNA knockout: sgATG7, 100 nM): 117 ± 36 | relative cell number [7]: 90.5 ± 13 | relative cell number [8]: 106 ± 33 | relative cell number (sgRNA knockout: sgERN1, 10 nM): 149 ± 54 | relative cell number (sgRNA knockout: sgERN1, 100 nM): 117 ± 7.4 | relative cell number [9]: 94.9 ± 25 | relative cell number [10]: 76.3 ± 3 | relative cell number (sgRNA knockout: sgHSF2, 10 nM): 139 ± 22 | relative cell number (sgRNA knockout: sgHSF2, 100 nM): 123 ± 3 | relative cell number [11]: 106 ± 5.7 | relative cell number [12]: 109 ± 33 | relative cell number [13]: 142 ± 19 | relative cell number [14]: 101.4 ± 0.55 | relative cell number [15]: 145 ± 6.3 | relative cell number [16]: 96.5 ± 1.4 | relative cell number [17]: 101 ± 40 | relative cell number [18]: 135 ± 31 | relative cell number [19]: 95 ± 45 | relative cell number [20]: 110 ± 26 | relative cell number (sgRNA knockout: sgXBP1, 10 nM): 155 ± 14 | relative cell number (sgRNA knockout: sgXBP1, 100 nM): 101.2 ± 1 | relative cell number [21]: 120 ± 20 | relative cell number [22]: 102 ± 2

O=P1(NCCCl)OCCCN1CCCl (stereo not given) [Ifosfamide]
relative cell number (sgRNA knockout: sgATF3, 10 nM): 75.6 ± 2.1 | relative cell number (sgRNA knockout: sgATF3, 100 nM): 94.8 ± 5.5 | relative cell number [1]: 131 ± 7 | relative cell number [2]: 85.4 ± 29 | relative cell number (sgRNA knockout: sgATF4, 10 nM): 87.4 ± 0.91 | relative cell number (sgRNA knockout: sgATF4, 100 nM): 108 ± 1.2 | relative cell number [3]: 82.5 ± 18 | relative cell number [4]: 92.4 ± 11 | relative cell number (sgRNA knockout: sgATF6, 10 nM): 86.5 ± 7.6 | relative cell number (sgRNA knockout: sgATF6, 100 nM): 76.8 ± 35 | relative cell number [5]: 90.2 ± 20 | relative cell number [6]: 88.7 ± 38 | relative cell number (sgRNA knockout: sgATG7, 10 nM): 99.4 ± 33 | relative cell number (sgRNA knockout: sgATG7, 100 nM): 77.6 ± 25 | relative cell number [7]: 77.9 ± 30 | relative cell number [8]: 88.2 ± 19 | relative cell number (sgRNA knockout: sgERN1, 10 nM): 84.6 ± 4.2 | relative cell number (sgRNA knockout: sgERN1, 100 nM): 98.1 ± 20 | relative cell number [9]: 101 ± 22 | relative cell number [10]: 97.3 ± 20 | relative cell number (sgRNA knockout: sgHSF2, 10 nM): 85.6 ± 3.9 | relative cell number (sgRNA knockout: sgHSF2, 100 nM): 93.9 ± 28 | relative cell number [11]: 118 ± 18 | relative cell number [12]: 87.2 ± 17 | relative cell number [13]: 120 ± 31 | relative cell number [14]: 118 ± 23 | relative cell number [15]: 89.5 ± 45 | relative cell number [16]: 78.2 ± 10 | relative cell number [17]: 70.3 ± 43 | relative cell number [18]: 108 ± 59 | relative cell number [19]: 68 ± 8.1 | relative cell number [20]: 92 ± 4.3 | relative cell number (sgRNA knockout: sgXBP1, 10 nM): 108 ± 10 | relative cell number (sgRNA knockout: sgXBP1, 100 nM): 99.7 ± 24 | relative cell number [21]: 105 ± 2.5 | relative cell number [22]: 85.1 ± 1.3

O=C1NC(=O)[C@@H](c2cn3c4c(cccc24)CCC3)[C@@H]1c1c[nH]c2ccccc12 [Tivantinib]
relative cell number (sgRNA knockout: sgATF3, 10 nM): 81.9 ± 17 | relative cell number (sgRNA knockout: sgATF3, 100 nM): 104 ± 22 | relative cell number [1]: 34.3 ± 9.6 | relative cell number [2]: 22.7 ± 0.57 | relative cell number (sgRNA knockout: sgATF4, 10 nM): 79 ± 2.6 | relative cell number (sgRNA knockout: sgATF4, 100 nM): 120 ± 77 | relative cell number [3]: 37.5 ± 15 | relative cell number [4]: 23.8 ± 12 | relative cell number (sgRNA knockout: sgATF6, 10 nM): 108 ± 31 | relative cell number (sgRNA knockout: sgATF6, 100 nM): 56.8 ± 17 | relative cell number [5]: 44.8 ± 12 | relative cell number [6]: 18.9 ± 5.8 | relative cell number (sgRNA knockout: sgATG7, 10 nM): 91.3 ± 14 | relative cell number (sgRNA knockout: sgATG7, 100 nM): 90.2 ± 31 | relative cell number [7]: 23.7 ± 1.5 | relative cell number [8]: 20.2 ± 1.7 | relative cell number (sgRNA knockout: sgERN1, 10 nM): 90 ± 12 | relative cell number (sgRNA knockout: sgERN1, 100 nM): 86 ± 25 | relative cell number [9]: 27.7 ± 8.3 | relative cell number [10]: 32.1 ± 5 | relative cell number (sgRNA knockout: sgHSF2, 10 nM): 84.9 ± 11 | relative cell number (sgRNA knockout: sgHSF2, 100 nM): 83.4 ± 11 | relative cell number [11]: 26 ± 9.6 | relative cell number [12]: 19.5 ± 7.2 | relative cell number [13]: 90.8 ± 24 | relative cell number [14]: 81.7 ± 14 | relative cell number [15]: 32.2 ± 3.9 | relative cell number [16]: 20.1 ± 4.9 | relative cell number [17]: 117 ± 10 | relative cell number [18]: 83.9 ± 37 | relative cell number [19]: 28.6 ± 17 | relative cell number [20]: 20.46 ± 0.052 | relative cell number (sgRNA knockout: sgXBP1, 10 nM): 75.2 ± 15 | relative cell number (sgRNA knockout: sgXBP1, 100 nM): 84.2 ± 2.7 | relative cell number [21]: 32.6 ± 5.2 | relative cell number [22]: 26.1 ± 8.2

CCOC(=O)[C@@]1(CCCCCCOc2ccc(Cl)cc2)CO1 [Etomoxir]
relative cell number (sgRNA knockout: sgATF3, 10 nM): 90.4 ± 25 | relative cell number (sgRNA knockout: sgATF3, 100 nM): 108 ± 8.8 | relative cell number [1]: 91.7 ± 20 | relative cell number [2]: 73.1 ± 13 | relative cell number (sgRNA knockout: sgATF4, 10 nM): 107 ± 38 | relative cell number (sgRNA knockout: sgATF4, 100 nM): 137 ± 27 | relative cell number [3]: 102 ± 8.5 | relative cell number [4]: 75.2 ± 14 | relative cell number (sgRNA knockout: sgATF6, 10 nM): 92.7 ± 33 | relative cell number (sgRNA knockout: sgATF6, 100 nM): 83.5 ± 19 | relative cell number [5]: 80 ± 3 | relative cell number [6]: 77 ± 6.8 | relative cell number (sgRNA knockout: sgATG7, 10 nM): 99 ± 31 | relative cell number (sgRNA knockout: sgATG7, 100 nM): 78.5 ± 33 | relative cell number [7]: 68.4 ± 24 | relative cell number [8]: 73.79 ± 0.66 | relative cell number (sgRNA knockout: sgERN1, 10 nM): 82.8 ± 14 | relative cell number (sgRNA knockout: sgERN1, 100 nM): 105 ± 44 | relative cell number [9]: 110 ± 5.2 | relative cell number [10]: 63.3 ± 18 | relative cell number (sgRNA knockout: sgHSF2, 10 nM): 98.4 ± 6 | relative cell number (sgRNA knockout: sgHSF2, 100 nM): 82.4 ± 12 | relative cell number [11]: 81 ± 18 | relative cell number [12]: 63.5 ± 0.79 | relative cell number [13]: 95.6 ± 7.3 | relative cell number [14]: 108 ± 22 | relative cell number [15]: 98.7 ± 19 | relative cell number [16]: 59.6 ± 20 | relative cell number [17]: 108 ± 5.8 | relative cell number [18]: 65.6 ± 7.4 | relative cell number [19]: 71.6 ± 8 | relative cell number [20]: 53.38 ± 0.38 | relative cell number (sgRNA knockout: sgXBP1, 10 nM): 89.6 ± 7.7 | relative cell number (sgRNA knockout: sgXBP1, 100 nM): 103 ± 11 | relative cell number [21]: 111.59 ± 0.061 | relative cell number [22]: 54.6 ± 16

Cn1c(CCCC(=O)O)nc2cc(N(CCCl)CCCl)ccc21 [Bendamustine]
relative cell number (sgRNA knockout: sgATF3, 10 nM): 103 ± 7 | relative cell number (sgRNA knockout: sgATF3, 100 nM): 87.3 ± 1.4 | relative cell number [1]: 72.9 ± 9.9 | relative cell number [2]: 137 ± 11 | relative cell number (sgRNA knockout: sgATF4, 10 nM): 101 ± 14 | relative cell number (sgRNA knockout: sgATF4, 100 nM): 105 ± 60 | relative cell number [3]: 115 ± 14 | relative cell number [4]: 165 ± 57 | relative cell number (sgRNA knockout: sgATF6, 10 nM): 108 ± 3.4 | relative cell number (sgRNA knockout: sgATF6, 100 nM): 72 ± 41 | relative cell number [5]: 78.5 ± 6.8 | relative cell number [6]: 93.2 ± 25 | relative cell number (sgRNA knockout: sgATG7, 10 nM): 69.3 ± 32 | relative cell number (sgRNA knockout: sgATG7, 100 nM): 86 ± 38 | relative cell number [7]: 101 ± 10 | relative cell number [8]: 106 ± 29 | relative cell number (sgRNA knockout: sgERN1, 10 nM): 82.9 ± 19 | relative cell number (sgRNA knockout: sgERN1, 100 nM): 110 ± 41 | relative cell number [9]: 85.49 ± 0.77 | relative cell number [10]: 95.2 ± 13 | relative cell number (sgRNA knockout: sgHSF2, 10 nM): 80.2 ± 24 | relative cell number (sgRNA knockout: sgHSF2, 100 nM): 83.4 ± 2 | relative cell number [11]: 106 ± 34 | relative cell number [12]: 84.9 ± 2.3 | relative cell number [13]: 104 ± 58 | relative cell number [14]: 119.7 ± 0.91 | relative cell number [15]: 110 ± 2.5 | relative cell number [16]: 107 ± 34 | relative cell number [17]: 114 ± 2.9 | relative cell number [18]: 123 ± 82 | relative cell number [19]: 90 ± 26 | relative cell number [20]: 133 ± 40 | relative cell number (sgRNA knockout: sgXBP1, 10 nM): 89.3 ± 36 | relative cell number (sgRNA knockout: sgXBP1, 100 nM): 105 ± 5.3 | relative cell number [21]: 108 ± 2.9 | relative cell number [22]: 88 ± 10
